# Measured values from patent publication US12077777B2, “Precursory regulatory cytotrophoblast cells and uses thereof” (Accelerated BioSciences Corp., priority 2019, dated 2024).
# For at least one compound, name, drawing or mass did not settle the structure.
# Tests used:
# Type in all cases: cell-based, human
# [1] = system: β-hCG; experiment: IL-6 induced β-hCG, Western blot assay; settings: IL-6 10 ng/ml
# Procedure: (§1) After electrophoresis of 30 μg lysates on polyacrylamide gels, electroblotting onto PDVF membranes (MILLIPORE®) was performed. By blocking of 5% non-fat dry milk in PBS at room temperature (I hr), target proteins were incubated with primary antibodies. All membranes were incubated with chemiluminescent (MILLIPORE®) and imaging was captured by the CHEMIDOC® XRS system (BIO-RAD®). Antibodies used were listed in Key Resource Table. Data were analyzed by AlphaEaseFC (version 4.0.0).
# [2] = system: PI3K/AKT signaling; experiment: Gβ/PI3K/AKT/GSK3α/β pathway by blotting analysis in hTS cells
# Procedure: as §1, with “In cell culture, hTS cells were treated with bFGF and harvested at time as indicated and put into RIPA lysis solution (MILLIPORE®) supplemented with protease (Thermo Scientific) and phosphatase inhibitor (Cell Signaling Technology). After” for “After”
# [3] = system: hTS cells; experiment: Insulin secretion by RIA in secretomic analysis; settings: hTS cells (1×10^6 cells), glucose 20 mM, gliclazide 10 μM, nifedipine 10 μM, n=3
# Procedure: The hTS cell culture media (10 ml) were harvested at 80-90% confluence followed by centrifugation (3,000 rpm, 30 min, 4° C.). The supernatants were further concentrated to 1 ml by using 3 kDa VIVASPIN® concentrator (Sigma). The concentrated supernatant was further detected for TGF-β1, HLA-G, and PAI-1 by immunoblotting assay. IL-10 level was measured by OPTEIA® ELISA assay kit following the supplier's instructions (BD Pharmingen, San Diego). The range of detectable IL-10 concentration was between 2 and 2,000 pg/ml. An aliquot of 100 μl sample was measured in triplicate. Total protein of supernatant was measured by using Pierce BCA protein assay kit (THERMO […]®). […] Media were collected at different time (5, 10, 20, 30, 60 and 120 min), freeze dried by lyophilizer (VIRTIS®; Warminster), and rehydrated with sterile water (400 μl) for radioimmunoassay (RIA). C-peptide and insulin levels were determined by C-PEP II-RIA-CT (DIAsource ImmunoAssays S. A.) and Coat-A-Count insulin (Siemens Healthcare Diagnostics), respectively, in 5 assays.
structure (smiles),measurement,setting,value
"COc1cccc(-c2c(C)n(Cc3c(F)cccc3C(F)(F)F)c(=O)n(C[C@H](NCCCC(=O)O)c3ccccc3)c2=O)c1F [Elagolix sodium, reference compound]",IL-6-induced β-hCG in presence of inhibitor,[1],inhibited
O=c1cc(N2CCOCC2)oc2c(-c3ccccc3)cccc12 [LY294002],Gβ-induced phosphorylation of AKT (ser473) and GSK3α/β (ser21/9) in presence of inhibitor,[2],inhibited
COC(=O)C1=C(C)NC(C)=C(C(=O)OC)C1c1ccccc1[N+](=O)[O-] [nifedipine],insulin secretion,[3],inhibits insulin secretion
